PubChem BioAssay AID1259405 – NCATS, 2018
Assay: 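Knock-downs that lift recombinant protein yield in hamster ovary cells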 (primary screen). System: Chinese hamster CHO-K1 ovary cells with stable secreted eGFP expression. Reagent: single siRNA against mouse genes, 0.8 pmol siRNA per well (2 µl of 400 nM stock). Timing: 3 days. Detection: 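Percent of the per-plate non-targeting control median for intracellular GFP per well by laser scanning cytometry and for cell viability by ATP luminescence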. Reading the numbers: GFP, % of control: higher = more GFP per well, higher productivity. Rule for the call: 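Called active when intracellular GFP, relative to negative control, is at or above 120%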.
Shown is one part, drawn at random, of about 50,000 reagents tested. In the full data, about 4,000 (8%) are marked active. 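Mouse siRNA library applied to hamster cells; one well for each siRNA.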 Unmarked entries are inactive. The numbers tell different reagents against one gene apart. Further read-outs or replicates are left out here.

GFP, % of control, by target and reagent
Rnase13: #1 122 (active); #2 69.9; #3 104
Dbx1: #1 89.3; #2 72.5; #3 89.3
Pgap3: #1 62.7; #2 91.4; #3 77.7
Sdccag8: #1 91.1; #2 60.5; #3 96.1
Plau: #1 95.3; #2 60.5; #3 67.2
Smoc2: #1 61.8; #2 46; #3 53.2
Cpn2: #1 112; #2 59.4; #3 53.2
Sppl2c: #1 76.9; #2 51.6; #3 71.7
Wfdc5: #1 55.1; #2 88.5; #3 40.6
Pacsin3: #1 75; #2 70.8
Tcerg1: #1 137 (active); #2 102; #3 85.6

Entries listed above marked active:
GFP, % of control, by target and reagent
Rnase13: #1 122 (active)
Tcerg1: #1 137 (active)

Next records follow.
GFP, % of control, by target and reagent
Nenf: #1 17.2; #2 106; #3 60.6
Retnla: #1 84.8; #2 54.5; #3 66.4
Ccnt1: #1 63.4; #2 108
Kdm3b: #1 131 (active); #2 82.3; #3 143 (active)
Nxph2: #1 90.8; #2 19.6; #3 133 (active)
Adam7: #1 69.4; #2 55.5; #3 84.2
Tagln3: #1 56.8; #2 46.7; #3 53.5
Mrgprf: #1 64.8; #2 94.5; #3 64.5
Phxr2: #1 48.1; #2 107; #3 107
Zfp760: #1 62.8; #2 79.5; #3 70.4
Efhd1: #1 76.4; #2 84.4; #3 132 (active)
C1qtnf9: #1 91.3; #2 96.6; #3 71.7
Rorc: #1 36.3; #2 75.9; #3 41.9
Fundc1: #1 60.2; #2 83.6; #3 65.4
Tmem184b: #1 18; #2 65.3; #3 77.5
Chrnb3: #1 65.2; #2 28; #3 34.1
Ncdn: #1 138 (active); #2 87.4; #3 34.7
Fcrl5: #1 76; #2 79.5; #3 74.3
